For assay [1], the target named is T1, Human IL-17F (R&D Systems, cat #1335-IL-025/CF) (human) (UniProt Q96PD4).
T1 sequence: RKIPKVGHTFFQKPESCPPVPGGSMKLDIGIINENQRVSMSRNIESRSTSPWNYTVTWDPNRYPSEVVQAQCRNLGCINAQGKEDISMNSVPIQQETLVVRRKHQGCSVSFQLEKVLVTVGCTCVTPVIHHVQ
In words: phage spot competition ELISA screening / BIAcore (FIG. 14). On the technique in general: An ELISA detects its analyte on a solid surface through an enzyme-linked reagent.

Sequences of proteins named here, by UniProt entry; tags and fusion partners are left off. A change or cut given only in a name is not applied to a line headed by its entry.
UniProt Q16552: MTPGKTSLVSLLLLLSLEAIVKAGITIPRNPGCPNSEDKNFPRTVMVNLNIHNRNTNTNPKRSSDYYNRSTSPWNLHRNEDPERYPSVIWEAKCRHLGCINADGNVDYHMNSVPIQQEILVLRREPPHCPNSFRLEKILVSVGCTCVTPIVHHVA

Assay [2] concerns the target Recombinant human IL-17A/F heterodimer (human) (UniProt Q16552). In words: screening of cross-reactive clones; assay not given.
Assay [3] concerns the target T1, Human IL-17F (R&D Systems, cat #1335-IL-025/CF) (human). The assay is described as above.
The target in assay [4] is Human IL-17A (R&D Systems, cat #317-IL-050/CF) (human) (UniProt Q16552). The description is as above.

These are yes or no findings as the source states them, for the method shown. Some binding calls cover weakened binding; strength is not graded here.

Three molecules from patent publication US20100055103A1 can be followed below.

B1: YW265.01 (antibody, human IgG1, V domains shown)
VL: DIQMTQSPSSLSASVGDRVTITCRASQSISSYLAWYQQKPGKAPKLLIYGASSRASGVPSRFSGSGSGTDFTLTISSLQPEDFATYYCQQYYSSPLTFGQGTKVEIKR
VH: EVQLVESGGGLVQPGGSLRLSCAASGYSFTSPYISWVRQAPGKGLEWVASIFYYSGATDYADSVKGRFTISADTSKNTAYLQMNSLRAEDTAVYYCARGGYGYNQWFYSIYQSYFDYWGQ
In the case of B1, the binding entry in assay [1] is listed as “binds”.

B2: YW279.1 (antibody, V domains shown)
VL: DIQMTQSPSSLSASVGDRVTITCRASQSISSYLAWYQQKPGKAPKLLIYGASSRASGVPSRFSGSGSGTDFTLTISSLQPEDFATYYCQQRYSQPITFGQGTKVEIKR
VH: EVQLVESGGGLVQPGGSLRLSCAASGFSFTSYMMSWVRQAPGKGLEWVSTIYPESGATDYADSVKGRFTISADTSKNTAYLQMNSLRAEDTAVYYCAREGYYYSTSIKYYPWFDYWGQ
On to B2, for which the binding entry in assay [2], in assay [3] and in assay [4] was “binds” each time.

B3: YW278.15 (antibody, V domains shown)
VH: EVQLVESGGGLVQPGGSLRLSCAASGFTFTDYDISWVRQAPGKGLEWVASISPSDGYTYYADSVKGRFTISADTSKNTAYLQMNSLRAEDTAVYYCARYLYWSYVMDYWGQGTLVTVSS
VL: DIQMTQSPSSLSASVGDRVTITCRASQDVSTAVAWYQQKPGKAPKLLIYSASFLYSGVPSRFSGSGSGTDFTLTISSLQPEDFATYYCQQSYTTPPTFGQGTKVEIKR
For B3, the binding result in assay [4] is reported as “binds”.
